PubChem BioAssay AID1224830 – NIAID | 2016
This is one part, drawn at random, of about 18,000 reagents tested. Over the whole deposit, about 2,900 (16%) got an active call. 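Calls are made per well; low scores hint the gene aids the LPS response, high scores that it dampens it.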 Repeated entries: four replicate wells of each siRNA pool.

Assay: 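Regulators of TLR4 signalling towards TNF-alpha in macrophage-like cells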 (primary screen)
Cells: human THP-1 monocytic leukaemia cells, TNF dual-luciferase reporter clone, PMA-differentiated to macrophage-like cells
Reagent: siRNA pool against human genes, 50 nM
Timing: LPS for 4 h, given about 3 days after siRNA transfection
Treatment: bacterial LPS (TLR4 ligand), 10 ng/ml
Detection: 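Ratio of firefly to renilla light, scaled to the plate median and expressed as a robust z-score per replicate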
Direction: TNF reporter robust z-score: higher = stronger TNF reporter response to LPS
Call rule: 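a well is active when its z-score exceeds 2.8 or falls below -1.5; control wells carry no call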

Knock-down of TMEM207 (GeneID 131920) gave: TNF reporter robust z-score 2.46; inactive.
After knock-down of TMEM207 (GeneID 131920), the screen gave TNF reporter robust z-score 1.62; inactive.
TMEM207 (GeneID 131920) scored TNF reporter robust z-score 1.17; inactive.
Silencing of TMEM207 (GeneID 131920) gave: TNF reporter robust z-score -0.1; inactive.
CELA2A (GeneID 63036) showed TNF reporter robust z-score 0.41; inactive.
Depletion of CELA2A (GeneID 63036) resulted in: TNF reporter robust z-score -0.06; inactive.
With knock-down of CELA2A (GeneID 63036), the screen gave TNF reporter robust z-score 0.53; inactive.
After knock-down of CELA2A (GeneID 63036), the screen gave TNF reporter robust z-score 3.13; active.
Knock-down of ADI1 (GeneID 55256) resulted in: TNF reporter robust z-score 0.44; inactive.
Depletion of ADI1 (GeneID 55256) resulted in: TNF reporter robust z-score 0.6; inactive.
After knock-down of ADI1 (GeneID 55256), the record shows TNF reporter robust z-score -0.55; inactive.
Against ADI1 (GeneID 55256), the values are TNF reporter robust z-score 0.48; inactive.
Depletion of G0S2 (GeneID 50486) resulted in: TNF reporter robust z-score -0.62; inactive.
Against G0S2 (GeneID 50486), the values are TNF reporter robust z-score 0.19; inactive.
After knock-down of G0S2 (GeneID 50486) the results were TNF reporter robust z-score -0.1; inactive.
Depletion of G0S2 (GeneID 50486) resulted in: TNF reporter robust z-score 0.04; inactive.
After knock-down of SELP (GeneID 6403), the record shows TNF reporter robust z-score 1.45; inactive.
Against SELP (GeneID 6403) the deposit lists TNF reporter robust z-score 2.57; inactive.
SELP (GeneID 6403) gave TNF reporter robust z-score -0.04; inactive.
Against SELP (GeneID 6403), the values are TNF reporter robust z-score 0.31; inactive.
Against OSGEP (GeneID 55644), the entry reads TNF reporter robust z-score 0.27; inactive.
Depletion of OSGEP (GeneID 55644) gave: TNF reporter robust z-score 1.08; inactive.
With knock-down of OSGEP (GeneID 55644), the screen gave TNF reporter robust z-score 0.36; inactive.
With knock-down of OSGEP (GeneID 55644) the results were TNF reporter robust z-score 0.86; inactive.
For RPL19P9 (GeneID 653314), the values are TNF reporter robust z-score -0.53; inactive.
Against RPL19P9 (GeneID 653314), the values are TNF reporter robust z-score 1.56; inactive.
RPL19P9 (GeneID 653314) gave TNF reporter robust z-score 0.59; inactive.
For RPL19P9 (GeneID 653314), the values are TNF reporter robust z-score 1.15; inactive.
After knock-down of PLEK2 (GeneID 26499) the results were TNF reporter robust z-score -1.2; inactive.
After knock-down of PLEK2 (GeneID 26499) the results were TNF reporter robust z-score -1.15; inactive.
PLEK2 (GeneID 26499) scored TNF reporter robust z-score -0.44; inactive.
PLEK2 (GeneID 26499) gave TNF reporter robust z-score 0.03; inactive.
MORC1 (GeneID 27136) gave TNF reporter robust z-score -0.15; inactive.
Against MORC1 (GeneID 27136), the values are TNF reporter robust z-score 0.17; inactive.
MORC1 (GeneID 27136) showed TNF reporter robust z-score -0.3; inactive.
With knock-down of MORC1 (GeneID 27136), the screen gave TNF reporter robust z-score -0.78; inactive.
For SV2A (GeneID 9900), the entry reads TNF reporter robust z-score -1.76; active.
For SV2A (GeneID 9900), the values are TNF reporter robust z-score -0.84; inactive.
SV2A (GeneID 9900) scored TNF reporter robust z-score -0.73; inactive.
Depletion of RFWD3 (GeneID 55159) resulted in: TNF reporter robust z-score -1.53; active.
After knock-down of RFWD3 (GeneID 55159), the screen gave TNF reporter robust z-score -0.43; inactive.
With knock-down of RFWD3 (GeneID 55159) the results were TNF reporter robust z-score -0.96; inactive.
After knock-down of RFWD3 (GeneID 55159) the results were TNF reporter robust z-score -1.39; inactive.
Silencing of ADAP2 (GeneID 55803) came out at: TNF reporter robust z-score 1.04; inactive.
Silencing of ADAP2 (GeneID 55803) resulted in: TNF reporter robust z-score 1.1; inactive.
For ADAP2 (GeneID 55803) the deposit lists TNF reporter robust z-score 0.46; inactive.
After knock-down of ADAP2 (GeneID 55803), the screen gave TNF reporter robust z-score 0.7; inactive.
